From article PMC3382138, “On the Structure and Function of the Phytoene Desaturase CRTI from Pantoea ananatis, a Membrane-Peripheral and FAD-Dependent Oxidase/Isomerase” (PLoS ONE, 2012)
These are yes or no findings as the source states them, for the method shown. Tags and fused reporters may be left off the sequences shown.

Molecular target: Phytoene desaturase CRTI from Pantoea ananatis, C-terminal His6 fusion (Pantoea ananatis) (UniProt P21685)
Test: SEC; gel permeation chromatography on HiLoad 16/60 Superdex 200 PG in 50 mM Tris-HCl pH 8.0, 100 mM NaCl, 1 mM TCEP, 1 ml/min; no detergent; both purified

binding: no binding
B1: Phytoene desaturase CRTI from Pantoea ananatis, C-terminal His6 fusion (enzyme, UniProt P21685 1-492)
chain: MKPTTVIGAGFGGLALAIRLQAAGIPVLLLEQRDKPGGRAYVYEDQGFTFDAGPTVITDPSAIEELFALAGKQLKEYVELLPVTPFYRLCWESGKVFNYDNDQTRLEAQIQQFNPRDVEGYRQFLDYSRAVFKEGYLKLGTVPFLSFRDMLRAAPQLAKLQAWRSVYSKVASYIEDEHLRQAFSFHSLLVGGNPFATSSIYTLIHALEREWGVWFPRGGTGALVQGMIKLFQDLGGEVVLNARVSHMETTGNKIEAVHLEDGRRFLTQAVASNADVVHTYRDLLSQHPAAVKQSNKLQTKRMSNSLFVLYFGLNHHHDQLAHHTVCFGPRYRELIDEIFNHDGLAEDFSLYLHAPCVTDSSLAPEGCGSYYVLAPVPHLGTANLDWTVEGPKLRDRIFAYLEQHYMPGLRSQLVTHRMFTPFDFRDQLNAYHGSAFSVEPVLTQSAWFRPHNRDKTITNLYLVGAGTHPGAGIPGVIGSAKATAGLMLEDLI
